{
  "source": "paper PMC7862700",
  "note": "The other results are listed elsewhere or left out. The exact form of the protein is not confirmed.",
  "data": [
    {"target": "T1, ELF2 (UniProt Q15723)", "T1 sequence": "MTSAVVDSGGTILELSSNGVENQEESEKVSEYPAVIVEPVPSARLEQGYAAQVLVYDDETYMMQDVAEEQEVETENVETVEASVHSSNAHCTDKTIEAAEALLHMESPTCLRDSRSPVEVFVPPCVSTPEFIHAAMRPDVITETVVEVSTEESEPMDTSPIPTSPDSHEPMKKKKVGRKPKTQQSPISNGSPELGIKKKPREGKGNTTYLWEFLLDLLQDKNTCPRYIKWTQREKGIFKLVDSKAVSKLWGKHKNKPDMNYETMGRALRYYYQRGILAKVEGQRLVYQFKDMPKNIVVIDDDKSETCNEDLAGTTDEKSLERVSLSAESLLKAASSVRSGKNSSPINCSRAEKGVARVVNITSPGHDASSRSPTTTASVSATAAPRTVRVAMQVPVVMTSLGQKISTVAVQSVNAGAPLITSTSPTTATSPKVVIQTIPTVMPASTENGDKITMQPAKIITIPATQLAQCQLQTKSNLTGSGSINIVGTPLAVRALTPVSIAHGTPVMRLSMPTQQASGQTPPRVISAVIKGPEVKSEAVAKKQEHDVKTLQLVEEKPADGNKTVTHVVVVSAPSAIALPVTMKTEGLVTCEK", "test": "DAPPL (digital affinity profiling via proximity ligation, sequencing)", "conditions": "10 mM Tris-HCl pH 7.5, 50 mM NaCl, 1 mM DTT, 4% glycerol, room temperature, 30 min; GST-TFs on glutathione beads, 16-mer random dsDNA library, 0.1% …; high values mean tight binding; double strand, one strand shown; scale: fold enrichment (6-mer frequency, TF over GST control)", "values": [
      {"sequence": "TCCTAC", "binding signal": 1.53},
      {"sequence": "ATCTCC", "binding signal": 1.46},
      {"sequence": "ACCTCG", "binding signal": 1.05},
      {"sequence": "TCTTAC", "binding signal": 1.24},
      {"sequence": "TTCACT", "binding signal": 1.35},
      {"sequence": "CTGGAC", "binding signal": 1.07},
      {"sequence": "AAATGT", "binding signal": 1.33},
      {"sequence": "CGAAAG", "binding signal": 1.05},
      {"sequence": "CTCTAA", "binding signal": 1.25},
      {"sequence": "ATTGCG", "binding signal": 1.21},
      {"sequence": "CATCTA", "binding signal": 1.08},
      {"sequence": "ATGATC", "binding signal": 1.15},
      {"sequence": "ATCTTC", "binding signal": 1.69},
      {"sequence": "GATATA", "binding signal": 1.23},
      {"sequence": "TAGTAC", "binding signal": 1.13},
      {"sequence": "CGCCTC", "binding signal": 1.36},
      {"sequence": "TTTCTT", "binding signal": 1.39},
      {"sequence": "GTAAAC", "binding signal": 1.23},
      {"sequence": "TTTCAG", "binding signal": 1.27},
      {"sequence": "ACCTGC", "binding signal": 1.39},
      {"sequence": "AGCTTC", "binding signal": 2.07},
      {"sequence": "CCTCTT", "binding signal": 1.68},
      {"sequence": "ATGCTT", "binding signal": 1.27},
      {"sequence": "TTAATT", "binding signal": 1.48},
      {"sequence": "TTGATT", "binding signal": 1.24},
      {"sequence": "ATCCTG", "binding signal": 1.48},
      {"sequence": "AAGCAG", "binding signal": 1.16},
      {"sequence": "ATATGC", "binding signal": 1.11},
      {"sequence": "CTTGTG", "binding signal": 1.37},
      {"sequence": "TTGCGC", "binding signal": 1.08},
      {"sequence": "TCTAAG", "binding signal": 1.14},
      {"sequence": "AACGTC", "binding signal": 1.09},
      {"sequence": "GAATCT", "binding signal": 1.07},
      {"sequence": "AAGCTC", "binding signal": 1.19},
      {"sequence": "TCCGGA", "binding signal": 3.9},
      {"sequence": "TACTTG", "binding signal": 1.24},
      {"sequence": "AAAGAC", "binding signal": 1.03},
      {"sequence": "GTTTTC", "binding signal": 1.23},
      {"sequence": "GACCTT", "binding signal": 1.51}
    ]}
  ]
}
